## Assay results

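Plate-reader measure of the Venus reporter marking one vaccinia stage in infected cells (the cell line is not named here); read time unknown. The test concentration is not given here. Percent change in Venus reporter signal; lower (more negative) values mean stronger inhibition of that viral stage.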

Values are in %. The controls that fix the scale are not given here. Common to all entries: measured here: Venus reporter, other viral stage. Part of the compounds only, not a random draw; the main read-out is not listed here.

| structure | activity change (Venus) (%) |
|---|---|
| `CC(C)NC(=O)N(C)C[C@@H]1Oc2cc(C#Cc3ccc(F)cc3)ccc2S(=O)(=O)N([C@@H](C)CO)C[C@H]1C` | -54.86 |
| `O=C(Nc1ccc(Cl)cc1)N1C[C@H]2[C@@H](c3ccccc31)[C@@H](CO)N2CC1CCCCC1` | -31.25 |
| `Cc1ccc(S(=O)(=O)Nc2ccc3c(c2)C(=O)N([C@H](C)CO)C[C@@H](C)[C@H](CN(C)Cc2ccc(C(F)(F)F)cc2)OCCCC[C@@H](C)O3)cc1` | -74.87 |
| `C[C@@H]1CN([C@H](C)CO)S(=O)(=O)c2ccc(-c3cccc(F)c3)cc2O[C@H]1CN(C)C(=O)Nc1cc(F)ccc1F` | -45.1 |
| `C[C@@H]1CN([C@@H](C)CO)C(=O)c2cc(NC(=O)Nc3ccc(C(F)(F)F)cc3)ccc2O[C@@H]1CN(C)CC1CC1` | -52.85 |
| `COc1ccc2c3c([nH]c2c1)[C@H](CO)N(S(C)(=O)=O)CC31CN(CC2CCOCC2)C1` | -37.5 |
| `C[C@@H]1CN([C@@H](C)CO)C(=O)c2cc(NC(=O)Nc3ccc(F)cc3)ccc2O[C@@H]1CN(C)S(=O)(=O)c1ccc(Cl)cc1` | -43.77 |
| `CCCC#Cc1ccc([C@@H]2[C@H](CO)N3CCCCN(C(=O)NC4CCCC4)C[C@@H]23)cc1` | -71.26 |
| `Fc1cccc(-c2ccc(C3[C@@H]4CN(Cc5ccccc5F)C[C@H]3N4)cc2)c1` (some centres undefined) | -81.02 |
| `C[C@@H]1CN([C@@H](C)CO)S(=O)(=O)c2ccc(-c3ccccc3)cc2O[C@H]1CN(C)Cc1cccc(F)c1` | -37.8 |
| `COc1ccc(S(=O)(=O)Nc2ccc3c(c2)CC(=O)N([C@@H](C)CO)C[C@H](C)[C@H](CN(C)Cc2ccc(C(F)(F)F)cc2)O3)cc1` | -40.11 |
| `CN1c2ccc(-c3cccc(F)c3)cc2[C@@H]2[C@@H](CCN2C(=O)c2cccc(F)c2)[C@@H]1CO` | -62.21 |
| `N#C[C@H]1[C@@H](c2ccc(C#CC3CCCC3)cc2)[C@H](CO)N1C(=O)Nc1ccc(F)cc1` | -70.45 |
| `C[C@H]1CCCCO[C@@H](CN(C)Cc2ccc3c(c2)OCO3)[C@@H](C)CN([C@@H](C)CO)C(=O)c2cc(NS(=O)(=O)c3ccc(Cl)cc3)ccc2O1` | -58.11 |
| `CN(C)C(=O)c1ccc(-c2ccc3c(c2)[C@@H]2[C@@H](CCN2C(=O)C2CCCCC2)[C@H](CO)N3C)cc1` | -59.86 |
| `CS(=O)(=O)Nc1ccc2c(c1)[C@@H]1C[C@H](CC(=O)NCc3ccc(Oc4ccccc4)cc3)O[C@@H](CO)[C@@H]1O2` | -51.61 |
| `CC(C)CC#Cc1ccc2c(c1)O[C@H](CN(C)C(=O)c1cccc(F)c1)[C@H](C)CN([C@H](C)CO)S2(=O)=O` | -34.26 |
| `C/C=C/c1ccc([C@H]2[C@H](CO)N[C@H]2CN(CC(C)C)C(=O)c2ccccn2)cc1` | -27.54 |
| `C[C@H]1CN([C@@H](C)CO)C(=O)c2cccc(NC(=O)NC3CCCCC3)c2O[C@H]1CN(C)C(=O)Nc1ccc(C(F)(F)F)cc1` | -61.18 |
| `C[C@@H]1CN([C@H](C)CO)C(=O)Cc2cc(NC(=O)NC3CCCCC3)ccc2O[C@H]1CN(C)Cc1ccc(-c2ccccc2)cc1` | -18.78 |
| `C[C@@H]1CN([C@H](C)CO)C(=O)Cc2cc(NS(=O)(=O)c3ccccc3)ccc2O[C@H]1CN(C)Cc1ccc(Oc2ccccc2)cc1` | -44.91 |
| `Cc1ccc(-c2ccc([C@H]3[C@H]4CN(C(=O)Nc5ccc(F)cc5)CC(=O)N4[C@H]3CO)cc2)cc1` | -62.58 |
| `O=C(c1ccc(F)cc1)N1CCCCN2[C@H](C1)[C@@H](c1ccc(-c3ccc(F)cc3)cc1)[C@@H]2CO` | -55.8 |
| `COc1ccc(-c2ccc([C@H]3[C@@H](C#N)N(C(=O)NC(C)C)[C@H]3CO)cc2)cc1` | -15.29 |
| `O=C(C1CC1)N1C[C@@H]2N[C@H](C1)C2c1ccc(-c2ccccc2F)cc1` (some centres undefined) | -101.9 |
| `C[C@H](CO)N1C[C@H](C)[C@H](CN(C)C(=O)C2CCCCC2)Oc2cc(C3=CCCCC3)ccc2S1(=O)=O` | -43.36 |
| `COc1ccc(S(=O)(=O)N(C)C[C@@H]2Oc3c(NC(=O)Nc4ccc(F)cc4)cccc3C(=O)N([C@@H](C)CO)C[C@@H]2C)cc1` | -31.06 |
| `CN(C)CC(=O)N[C@H]1C[C@@H]2O[C@@H](CO)CC[C@@H]2O[C@@H]1CCc1ccc(C2=CCCCC2)cc1` | -47.82 |
| `COc1cccc(CNC(=O)c2cc3c(c(-c4cccc(-c5cccc(C#N)c5)c4)n2)[C@H](CCO)N([S@@](=O)C(C)(C)C)C3)c1` | -7.689 |
| `C[C@@H]1CCCCO[C@H](CN(C)S(=O)(=O)c2ccc(Cl)cc2)[C@H](C)CN([C@H](C)CO)C(=O)c2cc(NC(=O)c3ccncc3)ccc2O1` | -43.09 |
| `O=C1N(CCS(=O)(=O)c2ccccc2)Cc2ccccc2C[C@]12N=C(c1ccc(OCCCO)cc1)O[C@@H]2c1ccccc1` | -49.32 |
| `COc1ccc(C#Cc2ccc([C@@H]3[C@H](CO)N4C(=O)CN(C(=O)NC(C)C)C[C@@H]34)cc2)cc1` | -41.12 |
| `CC(C)NC(=O)Nc1ccc2c(c1)C(=O)N([C@@H](C)CO)C[C@@H](C)[C@@H](CN(C)Cc1ccc(-c3ccccc3)cc1)O2` | -50.95 |
| `C[C@@H]1CCCCO[C@@H](CN(C)Cc2ccc3c(c2)OCO3)[C@@H](C)CN([C@@H](C)CO)C(=O)c2cc(NC(=O)NC3CCCCC3)ccc2O1` | -45.01 |
| `C[C@@H]1CN([C@H](C)CO)S(=O)(=O)c2ccc(C#Cc3ccccc3)cc2O[C@@H]1CN(C)C` | -40.9 |
| `C[C@H](CO)N1C[C@H](C)[C@H](CN(C)C(=O)Cc2ccccc2)Oc2cc(C#CC3CCCC3)ccc2S1(=O)=O` | -49.66 |
| `O=C(Nc1cccc(F)c1)N1CCCCN2[C@H](C1)[C@H](c1ccc(C#Cc3cccnc3)cc1)[C@@H]2CO` | -31.64 |
| `COc1ccc(NC(=O)Nc2ccc3c(c2)C(=O)N([C@H](C)CO)C[C@@H](C)[C@H](CN(C)Cc2ccc(C(F)(F)F)cc2)OCCCC[C@H](C)O3)cc1` | -28.92 |
| `C[C@@H]1CN([C@@H](C)CO)C(=O)Cc2cc(NC(=O)Cc3ccccc3)ccc2O[C@H]1CN(C)Cc1ccc(Cl)c(Cl)c1` | -47.25 |
| `C[C@@H]1CN([C@H](C)CO)S(=O)(=O)c2ccc(-c3ccc(F)cc3)cc2O[C@@H]1CN(C)C(=O)C1CCCCC1` | -65.21 |
| `COc1ccc(NC(=O)Nc2ccc3c(c2)CC(=O)N([C@@H](C)CO)C[C@@H](C)[C@H](CN(C)Cc2ccc4c(c2)OCO4)O3)cc1` | -20.61 |
| `COc1ccc(NC(=O)N(C)C[C@H]2OCc3ccccc3-c3c(n(C)c4ccccc34)C(=O)N([C@H](C)CO)C[C@H]2C)c(OC)c1` | -43.25 |
| `COc1ccc(S(=O)(=O)Nc2ccc3c(c2)C(=O)N([C@H](C)CO)C[C@@H](C)[C@H](CN(C)C(=O)Nc2ccc(F)cc2)OCCCC[C@@H](C)O3)cc1` | -35.65 |
| `COc1ccc(S(=O)(=O)Nc2ccc3c(c2)C(=O)N([C@H](C)CO)C[C@@H](C)[C@H](CN(C)S(=O)(=O)c2c(C)noc2C)OCCCC[C@H](C)O3)cc1` | -38.85 |
| `CN(C)CC(=O)N1[C@H](CO)[C@H](c2ccc(C#CC3CCCC3)cc2)[C@@H]1C#N` | -49.88 |
| `C[C@H](CO)N1C[C@H](C)[C@@H](CN(C)Cc2ccccn2)Oc2cc(-c3ccccc3)ccc2S1(=O)=O` | -40.65 |
| `Cc1ccc(-c2ccc3c(c2)O[C@@H](CN(C)C(=O)Nc2ccc(F)cc2)[C@@H](C)CN([C@@H](C)CO)S3(=O)=O)cc1` | -59.35 |
| `Cc1noc(C)c1NC(=O)Nc1cccc2c1O[C@H](CN(C)C(=O)Nc1cccc3ccccc13)[C@@H](C)CN([C@@H](C)CO)C2=O` | -25.54 |
| `O=C(Cc1cccnc1)N1CCCCN2[C@@H](CO)[C@@H](c3ccc(/C=C/c4ccccc4)cc3)[C@@H]2C1` | -62.16 |
| `O=C(Cc1ccccn1)N1CCCCN2[C@H](CO)[C@H](c3ccc(C#Cc4ccccc4)cc3)[C@H]2C1` | -35.52 |
| `C/C=C/c1ccc2c(c1)O[C@@H](CN(C)C(=O)Nc1cccc(F)c1)[C@H](C)CN([C@@H](C)CO)S2(=O)=O` | -32.8 |
| `c1ccc(CN2C[C@@H]3N[C@H](C2)C3c2ccc(-c3ccccc3)cc2)cc1` (some centres undefined) | -30.39 |
| `C[C@H]1CCCCO[C@H](CN(C)Cc2ccc3c(c2)OCO3)[C@@H](C)CN([C@@H](C)CO)C(=O)c2cc(NC(=O)Nc3ccc4c(c3)OCO4)ccc2O1` | -50.62 |

For reference, 7 entries once more:

structure	activity change (Venus) (%)
COc1ccc(NC(=O)Nc2ccc3c(c2)C(=O)N([C@H](C)CO)C[C@@H](C)[C@H](CN(C)Cc2ccc(C(F)(F)F)cc2)OCCCC[C@H](C)O3)cc1	-28.92
C[C@H]1CN([C@@H](C)CO)C(=O)c2cccc(NC(=O)NC3CCCCC3)c2O[C@H]1CN(C)C(=O)Nc1ccc(C(F)(F)F)cc1	-61.18
Cc1ccc(-c2ccc([C@H]3[C@H]4CN(C(=O)Nc5ccc(F)cc5)CC(=O)N4[C@H]3CO)cc2)cc1	-62.58
CN(C)CC(=O)N[C@H]1C[C@@H]2O[C@@H](CO)CC[C@@H]2O[C@@H]1CCc1ccc(C2=CCCCC2)cc1	-47.82
COc1ccc(-c2ccc([C@H]3[C@@H](C#N)N(C(=O)NC(C)C)[C@H]3CO)cc2)cc1	-15.29
Cc1noc(C)c1NC(=O)Nc1cccc2c1O[C@H](CN(C)C(=O)Nc1cccc3ccccc13)[C@@H](C)CN([C@@H](C)CO)C2=O	-25.54
C[C@H](CO)N1C[C@H](C)[C@H](CN(C)C(=O)C2CCCCC2)Oc2cc(C3=CCCCC3)ccc2S1(=O)=O	-43.36

Source: PubChem BioAssay AID1053133 (Broad Institute, 2014).